The data set relates to PDGF AB (Homo sapiens). As to the kind of experiment: filter binding. The following applies: 3'-3' inverted T at 3' end, substantially lower affinity than full-length, data not shown, purified recombinant protein, protein details: R&D Systems 222-AB, single-stranded DNA.

The source of these data is patent US5668264.

The comparison behind a weaker result is the experiment's own reference, which may not be listed here.

As to “AAGTCGTGCAGGGTCCCCTGGAAGCATCTCCGATCCCAGACTTT [38t]”, the binding result (variant of ssDNA ligand 38) was “binds more weakly”.
Turning to “TAGAGGGGAAGTAGGCTGCCTGACTCGAGAGAGTT [26t]”, the binding result (variant of ssDNA ligand 26) is reported as “binds more weakly”.
As for “GGGCGCGTTCTTCGTGGTTACTTTTAGTCCCGT [20t-b]”, where the note is “variant of ssDNA ligand 20”, the binding result was “binds more weakly”.
Regarding “TACTAGGCTTGACAAAGGGCACCATGGCTTAGTGGTCCTAGTAT [14t]”, under “variant of ssDNA ligand 14”, the binding result was “binds more weakly”.
With “AGTGGAACAGGGCACGGAGAGTCAAACTTTGGTTTCCCCCACTT [40t]”, the binding result (variant of ssDNA ligand 40) is “binds more weakly”.
